According to PMC10779086, “3-O-Methyltolcapone and Its Lipophilic Analogues Are Potent Inhibitors of Transthyretin Amyloidogenesis with High Permeability and Low Toxicity” (International Journal of Molecular Sciences, 2023):

Key:
[1] = Caco-2 intestinal permeability; format: in vitro ADME; details: human
Method: Caco-2 cells (cod. HTB-37) were bought from ATCC (American Type Culture Collection, Rockville, MD, USA). Caco-2 cells were cultured for 21 days on a 24 trans-well plate to reach the right confluence and differentiate until the formation of the intestinal epithelium mimetic monolayer. The test substance permeability was measured in both directions (apical to basolateral [A→B] and basolateral to apical [B→A]) across the cell monolayer. The assay was carried out in HBSS transport medium at pH 7.4. Test substance at single concentration (10 μM) was tested in duplicate at one time point (60 min). Monolayer integrity of Caco-2 cells was evaluated by TEER measurements during the experiment and by Lucifer Yellow test after the incubation with the test compound. The concentrations of the test substance and/or reference controls were measured by LC-MS/MS.
The efflux ratio (Papp BA/Papp AB) was determined, providing an Indicator of the compound’s active efflux. A P-glycoprotein (P-gp) inhibitor, Elacridar (EL 2 µM), was included to identify the active transport mediated by apical efflux transporters. […] As control, the modulation of the efflux ratio of a reference known substrate (Digoxin) was evaluated with or without the respectively inhibitors in every experiment. […] In parallel, mass balance (%) of recovered test substance was also determined. […]

Caco-2 cells = details: A→B, expected value in brackets; cited from earlier work

For `CC(C)NCC(O)COc1ccc(CC(N)=O)cc1` (stereo not drawn) [Atenolol, reference compound], the recovery at 60 min, 10 µM ([1]; Caco-2, pH 7.4, A→B) is given as 86 ± 1%, the Papp A→B at 60 min, 10 μM ([1]; Caco-2, A→B, 10 μM, 60 min, pH 7.4) is given as < 1 ×10⁻⁶ cm/s and the “Papp [Expected Values]” value (Caco-2 cells) is given as <10 [<10] nm/s.
